The record followed here is paper PMC8905165.

Protein sequences, listed by entry. Tags and fused reporters are not part of them. Residues count along the entry.
UniProt Q02224, residues 1-483: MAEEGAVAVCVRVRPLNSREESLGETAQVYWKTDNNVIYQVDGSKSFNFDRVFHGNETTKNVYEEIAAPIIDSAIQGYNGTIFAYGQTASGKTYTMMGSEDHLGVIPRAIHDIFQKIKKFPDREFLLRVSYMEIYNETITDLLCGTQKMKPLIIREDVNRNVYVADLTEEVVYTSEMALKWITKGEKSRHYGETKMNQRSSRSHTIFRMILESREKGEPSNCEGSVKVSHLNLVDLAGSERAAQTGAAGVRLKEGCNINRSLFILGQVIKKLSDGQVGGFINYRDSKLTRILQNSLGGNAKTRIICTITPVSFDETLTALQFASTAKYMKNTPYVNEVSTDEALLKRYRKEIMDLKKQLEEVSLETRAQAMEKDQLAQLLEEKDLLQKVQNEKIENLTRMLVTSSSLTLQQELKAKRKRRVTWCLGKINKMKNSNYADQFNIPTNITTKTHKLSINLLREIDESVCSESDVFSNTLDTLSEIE

The target of this experiment is CENP-E483-2mNeon (human) (UniProt Q02224). The experiment is described as follows: native gel or EMSA; native PAGE of purified CENP-E483-2mNeon; monomer to dimer; both purified.

No constants are given. Whether binding was seen depends on the method and setting. Some entries that bind do so weakly or less than the wild type.

For “CENP-E483-2mNeon (from UniProt Q02224 1-483) (domain or fragment)”, the binding entry is given as “binds weakly”.
